Results published in the supplement of paper PMC11732987, “Enantioselective OTUD7B fragment discovery through chemoproteomics screening and high-throughput optimisation” (Communications Chemistry, 2025).
The other results are listed elsewhere or left out. The data scatter; read single values as rough.

Sequences of proteins named here, by UniProt entry; tags and fusion partners are left off. A change or cut given only in a name is not applied to a line headed by its entry. Residues count along the entry.
UniProt Q69YI7: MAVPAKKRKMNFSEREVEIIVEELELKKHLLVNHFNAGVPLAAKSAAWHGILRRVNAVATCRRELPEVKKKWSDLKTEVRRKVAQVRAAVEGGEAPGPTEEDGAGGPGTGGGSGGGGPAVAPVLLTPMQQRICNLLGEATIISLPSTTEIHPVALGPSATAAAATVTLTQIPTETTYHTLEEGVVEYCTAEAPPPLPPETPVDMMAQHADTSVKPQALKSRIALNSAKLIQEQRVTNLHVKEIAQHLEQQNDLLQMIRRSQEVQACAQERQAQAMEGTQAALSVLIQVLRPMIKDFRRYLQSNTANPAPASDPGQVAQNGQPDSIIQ
UniProt Q13614, whole entry, looked up: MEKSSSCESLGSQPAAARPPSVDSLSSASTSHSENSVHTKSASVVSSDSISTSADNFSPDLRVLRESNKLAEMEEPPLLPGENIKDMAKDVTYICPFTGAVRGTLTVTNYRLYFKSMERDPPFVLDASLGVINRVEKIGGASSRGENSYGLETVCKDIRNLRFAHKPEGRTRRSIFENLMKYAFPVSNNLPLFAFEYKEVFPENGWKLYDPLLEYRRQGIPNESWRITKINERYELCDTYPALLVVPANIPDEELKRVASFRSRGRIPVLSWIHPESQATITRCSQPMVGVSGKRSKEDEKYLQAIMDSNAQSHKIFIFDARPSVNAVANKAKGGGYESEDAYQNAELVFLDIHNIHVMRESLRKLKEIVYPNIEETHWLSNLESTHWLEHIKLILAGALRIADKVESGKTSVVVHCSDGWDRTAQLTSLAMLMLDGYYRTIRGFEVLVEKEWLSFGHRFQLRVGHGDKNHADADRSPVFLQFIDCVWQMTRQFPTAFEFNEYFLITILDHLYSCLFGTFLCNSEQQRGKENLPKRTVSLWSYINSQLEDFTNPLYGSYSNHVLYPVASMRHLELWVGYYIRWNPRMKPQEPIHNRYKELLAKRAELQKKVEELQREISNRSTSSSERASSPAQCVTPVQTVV
UniProt Q13614, 4-40: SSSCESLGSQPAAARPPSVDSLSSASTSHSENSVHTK
UniProt B2RTY4: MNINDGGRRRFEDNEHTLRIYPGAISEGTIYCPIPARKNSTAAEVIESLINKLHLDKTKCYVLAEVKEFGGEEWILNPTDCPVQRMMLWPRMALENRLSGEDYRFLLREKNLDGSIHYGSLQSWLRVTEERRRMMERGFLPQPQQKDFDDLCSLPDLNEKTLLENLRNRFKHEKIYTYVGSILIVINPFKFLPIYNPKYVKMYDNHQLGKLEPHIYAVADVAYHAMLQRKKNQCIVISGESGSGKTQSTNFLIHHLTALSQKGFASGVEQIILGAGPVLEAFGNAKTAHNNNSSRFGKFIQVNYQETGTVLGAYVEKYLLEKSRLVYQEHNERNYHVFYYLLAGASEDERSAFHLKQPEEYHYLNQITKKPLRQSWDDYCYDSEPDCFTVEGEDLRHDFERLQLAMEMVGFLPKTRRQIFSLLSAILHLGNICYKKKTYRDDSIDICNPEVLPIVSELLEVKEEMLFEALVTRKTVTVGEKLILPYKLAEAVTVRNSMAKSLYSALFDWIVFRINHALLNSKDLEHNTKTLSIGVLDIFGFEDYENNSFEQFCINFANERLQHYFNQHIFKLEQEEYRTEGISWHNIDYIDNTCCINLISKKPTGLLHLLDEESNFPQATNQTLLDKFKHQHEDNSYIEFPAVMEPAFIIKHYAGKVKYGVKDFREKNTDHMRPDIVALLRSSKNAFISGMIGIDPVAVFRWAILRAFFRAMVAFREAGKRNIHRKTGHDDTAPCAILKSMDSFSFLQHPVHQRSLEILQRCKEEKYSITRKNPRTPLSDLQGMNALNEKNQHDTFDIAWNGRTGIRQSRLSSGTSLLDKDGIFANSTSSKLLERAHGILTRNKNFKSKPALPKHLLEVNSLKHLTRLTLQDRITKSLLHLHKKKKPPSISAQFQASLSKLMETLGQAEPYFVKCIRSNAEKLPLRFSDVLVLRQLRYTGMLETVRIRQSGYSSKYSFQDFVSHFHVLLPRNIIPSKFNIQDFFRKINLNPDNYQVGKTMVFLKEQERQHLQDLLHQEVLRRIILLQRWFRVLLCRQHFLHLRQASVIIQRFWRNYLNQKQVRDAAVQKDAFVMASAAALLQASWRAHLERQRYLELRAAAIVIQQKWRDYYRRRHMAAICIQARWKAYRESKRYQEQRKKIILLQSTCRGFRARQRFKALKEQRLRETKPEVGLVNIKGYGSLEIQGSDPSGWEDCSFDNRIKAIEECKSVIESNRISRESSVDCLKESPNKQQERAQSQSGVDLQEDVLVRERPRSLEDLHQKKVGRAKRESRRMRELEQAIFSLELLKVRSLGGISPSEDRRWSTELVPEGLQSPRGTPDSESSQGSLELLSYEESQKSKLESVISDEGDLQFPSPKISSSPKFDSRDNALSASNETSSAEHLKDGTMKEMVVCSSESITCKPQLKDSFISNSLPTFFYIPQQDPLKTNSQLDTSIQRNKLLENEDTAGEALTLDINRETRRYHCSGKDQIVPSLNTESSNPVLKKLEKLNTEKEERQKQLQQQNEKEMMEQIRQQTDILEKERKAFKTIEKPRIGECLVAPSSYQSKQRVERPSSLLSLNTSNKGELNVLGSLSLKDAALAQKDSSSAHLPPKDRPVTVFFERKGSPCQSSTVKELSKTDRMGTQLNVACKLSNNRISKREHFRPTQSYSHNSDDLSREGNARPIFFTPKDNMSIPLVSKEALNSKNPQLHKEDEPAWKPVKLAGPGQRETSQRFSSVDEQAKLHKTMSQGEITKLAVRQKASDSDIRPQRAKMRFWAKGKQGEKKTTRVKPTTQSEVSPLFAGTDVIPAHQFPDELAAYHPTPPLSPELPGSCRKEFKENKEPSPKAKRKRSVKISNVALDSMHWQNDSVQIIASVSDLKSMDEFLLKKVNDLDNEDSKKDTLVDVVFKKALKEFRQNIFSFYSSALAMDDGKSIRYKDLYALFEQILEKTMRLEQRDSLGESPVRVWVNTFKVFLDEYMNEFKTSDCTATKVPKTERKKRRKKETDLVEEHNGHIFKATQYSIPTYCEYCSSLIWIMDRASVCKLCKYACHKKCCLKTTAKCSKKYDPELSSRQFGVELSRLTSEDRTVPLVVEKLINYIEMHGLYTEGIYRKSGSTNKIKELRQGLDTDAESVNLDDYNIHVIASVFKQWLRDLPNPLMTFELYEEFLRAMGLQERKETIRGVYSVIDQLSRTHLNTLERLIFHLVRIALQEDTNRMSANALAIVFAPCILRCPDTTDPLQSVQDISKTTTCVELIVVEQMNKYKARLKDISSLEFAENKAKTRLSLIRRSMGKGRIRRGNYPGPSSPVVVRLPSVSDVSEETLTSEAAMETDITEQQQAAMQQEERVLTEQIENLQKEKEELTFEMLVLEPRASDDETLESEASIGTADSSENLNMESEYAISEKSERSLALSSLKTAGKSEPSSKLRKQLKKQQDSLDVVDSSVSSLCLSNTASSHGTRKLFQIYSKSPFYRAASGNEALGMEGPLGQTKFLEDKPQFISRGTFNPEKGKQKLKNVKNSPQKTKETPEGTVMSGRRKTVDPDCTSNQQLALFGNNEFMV
UniProt Q13496: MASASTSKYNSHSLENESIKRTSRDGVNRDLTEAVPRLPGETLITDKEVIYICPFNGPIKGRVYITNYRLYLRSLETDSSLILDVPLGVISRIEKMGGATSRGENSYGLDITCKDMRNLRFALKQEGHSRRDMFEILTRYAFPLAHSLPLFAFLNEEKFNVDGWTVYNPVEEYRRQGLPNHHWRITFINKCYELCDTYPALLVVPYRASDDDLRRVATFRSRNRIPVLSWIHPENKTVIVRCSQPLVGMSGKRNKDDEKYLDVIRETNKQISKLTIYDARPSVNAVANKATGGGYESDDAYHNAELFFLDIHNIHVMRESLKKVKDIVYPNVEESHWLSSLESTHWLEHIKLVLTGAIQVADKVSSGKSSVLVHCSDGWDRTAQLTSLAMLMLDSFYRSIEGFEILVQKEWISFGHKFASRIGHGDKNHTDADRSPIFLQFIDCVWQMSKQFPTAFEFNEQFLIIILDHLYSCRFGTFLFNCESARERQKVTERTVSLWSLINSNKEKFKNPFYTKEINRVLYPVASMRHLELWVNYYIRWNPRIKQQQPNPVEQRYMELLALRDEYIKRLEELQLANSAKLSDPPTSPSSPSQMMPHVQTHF
UniProt Q13330: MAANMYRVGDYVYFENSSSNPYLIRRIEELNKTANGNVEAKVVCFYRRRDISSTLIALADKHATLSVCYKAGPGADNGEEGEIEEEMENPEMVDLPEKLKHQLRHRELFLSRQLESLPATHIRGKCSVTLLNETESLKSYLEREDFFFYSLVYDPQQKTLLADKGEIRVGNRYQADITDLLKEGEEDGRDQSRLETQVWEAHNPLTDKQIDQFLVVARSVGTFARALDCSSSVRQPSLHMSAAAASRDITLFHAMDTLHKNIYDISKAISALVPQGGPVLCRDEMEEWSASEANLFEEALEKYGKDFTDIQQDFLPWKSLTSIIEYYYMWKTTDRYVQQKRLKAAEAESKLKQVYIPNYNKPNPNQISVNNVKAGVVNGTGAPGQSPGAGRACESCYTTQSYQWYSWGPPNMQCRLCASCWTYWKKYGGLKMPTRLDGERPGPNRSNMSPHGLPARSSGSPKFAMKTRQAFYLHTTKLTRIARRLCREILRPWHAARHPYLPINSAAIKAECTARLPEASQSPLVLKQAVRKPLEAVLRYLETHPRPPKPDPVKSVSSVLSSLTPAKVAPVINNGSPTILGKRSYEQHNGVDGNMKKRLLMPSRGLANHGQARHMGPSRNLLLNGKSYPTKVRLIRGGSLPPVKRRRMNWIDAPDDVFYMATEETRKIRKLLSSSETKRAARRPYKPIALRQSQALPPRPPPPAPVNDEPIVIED
UniProt Q9UHQ1, 249-271: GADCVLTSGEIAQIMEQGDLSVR
UniProt Q2M296, 252-277: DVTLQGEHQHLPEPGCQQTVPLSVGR
UniProt Q9H4K7, 169-190: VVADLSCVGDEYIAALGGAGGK
UniProt Q9UM54, whole entry, looked up: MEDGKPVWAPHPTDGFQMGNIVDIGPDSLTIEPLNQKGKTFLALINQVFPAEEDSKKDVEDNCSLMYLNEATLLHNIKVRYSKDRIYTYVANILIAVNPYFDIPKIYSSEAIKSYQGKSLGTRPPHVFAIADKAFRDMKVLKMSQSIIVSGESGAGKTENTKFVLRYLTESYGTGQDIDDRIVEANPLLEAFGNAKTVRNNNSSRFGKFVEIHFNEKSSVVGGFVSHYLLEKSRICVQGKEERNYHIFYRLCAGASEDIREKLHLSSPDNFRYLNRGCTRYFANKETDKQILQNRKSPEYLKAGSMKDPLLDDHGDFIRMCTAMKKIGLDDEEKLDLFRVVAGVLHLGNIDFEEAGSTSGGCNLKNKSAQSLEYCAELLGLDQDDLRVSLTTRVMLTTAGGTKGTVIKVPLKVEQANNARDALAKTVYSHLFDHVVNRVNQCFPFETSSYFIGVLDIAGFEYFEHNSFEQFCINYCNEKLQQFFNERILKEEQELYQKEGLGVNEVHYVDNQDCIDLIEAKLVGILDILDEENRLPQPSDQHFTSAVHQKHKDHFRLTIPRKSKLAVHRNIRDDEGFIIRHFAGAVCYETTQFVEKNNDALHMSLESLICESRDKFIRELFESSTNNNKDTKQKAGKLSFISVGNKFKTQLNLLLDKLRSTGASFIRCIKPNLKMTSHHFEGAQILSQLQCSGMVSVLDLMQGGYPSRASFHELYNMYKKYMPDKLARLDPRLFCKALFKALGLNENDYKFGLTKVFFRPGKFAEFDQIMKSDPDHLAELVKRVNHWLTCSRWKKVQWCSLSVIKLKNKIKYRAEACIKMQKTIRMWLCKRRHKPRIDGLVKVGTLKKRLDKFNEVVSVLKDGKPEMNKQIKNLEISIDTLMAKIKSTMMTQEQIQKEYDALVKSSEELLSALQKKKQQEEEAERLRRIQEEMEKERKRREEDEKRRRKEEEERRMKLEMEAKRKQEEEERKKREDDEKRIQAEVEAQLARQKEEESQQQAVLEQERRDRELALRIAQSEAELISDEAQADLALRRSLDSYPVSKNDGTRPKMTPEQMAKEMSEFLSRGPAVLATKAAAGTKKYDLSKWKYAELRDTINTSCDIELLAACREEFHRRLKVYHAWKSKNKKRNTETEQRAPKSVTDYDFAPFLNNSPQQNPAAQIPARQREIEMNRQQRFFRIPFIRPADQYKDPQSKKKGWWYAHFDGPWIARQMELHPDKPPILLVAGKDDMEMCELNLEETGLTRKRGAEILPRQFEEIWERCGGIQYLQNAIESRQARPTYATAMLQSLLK
UniProt Q147X3: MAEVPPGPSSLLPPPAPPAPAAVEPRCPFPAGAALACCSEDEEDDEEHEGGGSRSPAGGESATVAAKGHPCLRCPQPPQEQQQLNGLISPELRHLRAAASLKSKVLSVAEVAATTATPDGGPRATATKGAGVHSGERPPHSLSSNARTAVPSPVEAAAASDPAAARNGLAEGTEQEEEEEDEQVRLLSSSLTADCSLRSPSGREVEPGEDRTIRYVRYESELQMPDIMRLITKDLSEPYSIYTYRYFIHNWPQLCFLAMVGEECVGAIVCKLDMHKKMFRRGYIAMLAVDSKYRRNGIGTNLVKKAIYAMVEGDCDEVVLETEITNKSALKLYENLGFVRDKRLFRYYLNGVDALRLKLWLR

compound: ClCC(=O)N[C@H]1CCCc2ccccc12; assay: log2 mean competition ratio of IA-DTB cysteine labelling (DMSO/compound) (log2 ratio); higher = stronger cysteine engagement by compound; conditions: 200 µM; treatment time: 4 h; cell line lysate: HEK293T
Description: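 IA-DTB competitive cysteine chemoproteomics in HEK293T RIPA lysate. Lysates were treated with compound 29 or 30 at 50 or 200 µM for 4 h, then IA-DTB (500 µM, 1 h), trypsin-digested, NeutrAvidin-enriched and analysed by diaPASEF. Competition ratio = intensity DMSO / intensity compound (n=4 treated, n=64 DMSO); binding: mean log2 CR ≥ 1 and p ≤ 0.05 plus QC filters. Target is the cysteine site.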

| Target | log2 mean competition ratio |
| --- | --- |
| MYO1E C586 (UniProt Q12965) | -0.324 |
| MRPL38 C252 (UniProt Q96DV4) | -0.133 |
| MYBBP1A_(C614,C614,C623,C623) (UniProt Q9BQG0) | -0.0493 |
| MSH6 C1337 (UniProt P52701) | 0.0206 |
| MRPL27 C88 (UniProt Q9P0M9) | -0.0113 |
| NAIF1 C266 (UniProt Q69YI7) | -0.355 |
| MYO18A C811 (UniProt Q92614) | -0.0238 |
| MRPL43 C91 (UniProt Q8N983) | 0.297 |
| MTMR2 C284 (UniProt Q13614) | -0.173 |
| MYH14 C954 (UniProt Q7Z406) | 0.496 |
| MTMR2 C7 (UniProt Q13614) | -0.437 |
| MTMR3 C621 (UniProt Q13615) | 0.114 |
| MYO9A C1973 (UniProt B2RTY4) | -0.0613 |
| MTM1 C53 (UniProt Q13496) | -0.576 |
| MSH2 C199 (UniProt P43246) | -0.176 |
| MTA1 C229 (UniProt Q13330) | -0.0397 |
| MTMR12 C67 (UniProt Q9C0I1) | -0.77 |
| NARF C252 (UniProt Q9UHQ1) | -0.0953 |
| MYO9B C1876 (UniProt Q13459) | 0.134 |

Random excerpt: 3 entries already listed, in no set order.

| Target | log2 mean competition ratio |
| --- | --- |
| MTMR2 C7 (UniProt Q13614) | -0.437 |
| MSH6 C1337 (UniProt P52701) | 0.0206 |
| MSH2 C199 (UniProt P43246) | -0.176 |

Continued.

| Target | log2 mean competition ratio |
| --- | --- |
| MYCBP2 C4558 (UniProt O75592) | 0.0213 |
| MRPS9 C233 (UniProt P82933) | -0.224 |
| MYH14 C115 (UniProt Q7Z406) | -0.476 |
| MTHFSD C267 (UniProt Q2M296) | -0.341 |
| MRPL35 C150 (UniProt Q9NZE8) | 0.261 |
| MYCBP2 C222 (UniProt O75592) | 0.0438 |
| MYL6 C32 | 0.176 |
| MTM1 C242 (UniProt Q13496) | -0.0142 |
| MTG2 C175 (UniProt Q9H4K7) | 0.117 |
| MRPL44 C53 (UniProt Q9H9J2) | 0.0264 |
| MYO6 C668 (UniProt Q9UM54) | -0.379 |
| MTHFD1L C302 | 0.148 |
| MRPS5 C324 (UniProt P82675) | 0.045 |
| MSTO1 C46 (UniProt Q9BUK6) | 0.185 |
| MRPL44 C96 (UniProt Q9H9J2) | 0.0162 |
| MRPS18A C186 (UniProt Q9NVS2) | 0.303 |
| MUTYH C514 | 0.251 |
| NAA30 C195 (UniProt Q147X3) | 0.265 |
| MTRF1L C274 (UniProt Q9UGC7) | 0.12 |
